# Test results published in PubChem BioAssay AID248 (DTP/NCI, 2004).
# The list does not hold the whole screen: it is rich in T/C values a quarter to a half above the control, in often repeated tests (any T/C) and in doses without a T/C. Other doses and runs of a compound stand elsewhere. T/C is the treated group as % of the vehicle group. Some doses have a count of surviving animals in place of a T/C: the source files T/C as zero there, which appears to mark a toxic dose or a test without result, not a measured value. Some survivor counts are full or nearly so, which does not show that the dose was tolerated: the source hardly ever lists a survival T/C far under the control, and the zero likely stands for such cases as well. Counts of survivors are from the toxicity check (mostly the fifth day) where no day follows; animals may have died later. Schedules are NCI's codes, taken here to give the interval after Q, in days (D) or hours (H), and the number of doses after X. Some schedules carry Z or #; the key to these is not given. For survival time, the PubChem record calls one and a half times the control and up active, and a quarter to a half above the control has no call in these data; cut-offs in other NCI protocols can differ. Some entries hold several experiments; the results are listed from low to high. Some T/C values carry the count of animals alive at the toxicity check (mostly the fifth day); without a count, all were alive then.
# System: L1210 leukemia ip in BDF1 mice, survival T/C
# Assay: NCI In Vivo Anticancer Drug Screen. Data for tumor model L1210 Leukemia (intraperitoneal) in B6D2F1 (BDF1) mice
# Settings: T/C endpoint: mean survival time, higher T/C = longer survival
# [1] = dose: 400.0 mg/kg/injection, schedule: Q04DX003 (ip), vehicle: saline with Tween-80
# [2] = dose: 400.0 mg/kg/injection, schedule: Q01DX009 (ip), vehicle: Klucel (hydroxypropylcellulose) (HPC)
# [3] = dose: 200.0 mg/kg/injection, schedule: Q01DX009 (ip), vehicle: saline
# [4] = dose: 200.0 mg/kg/injection, schedule: Q04DX003 (ip), vehicle: saline
# [5] = dose: 400.0 mg/kg/injection, schedule: Q04DX003 (ip), vehicle: saline
# [6] = dose: 200.0 mg/kg/injection, schedule: Q04DX002 (ip), vehicle: Klucel (hydroxypropylcellulose) (HPC)
# [7] = dose: 400.0 mg/kg/injection, schedule: Q04DX002 (ip), vehicle: Klucel (hydroxypropylcellulose) (HPC)
# [8] = dose: 400.0 mg/kg/injection, schedule: Q01DX001 (ip), vehicle: carboxymethylcellulose (CMC)
# [9] = dose: 400.0 mg/kg/injection, schedule: Q01DX001 (ip), vehicle: Klucel (hydroxypropylcellulose) (HPC)
# [10] = dose: 100.0 mg/kg/injection, schedule: Q04DX002 (ip), vehicle: saline
# [11] = dose: 200.0 mg/kg/injection, schedule: Q04DX002 (ip), vehicle: saline
# [12] = dose: 400.0 mg/kg/injection, schedule: Q04DX002 (ip), vehicle: saline
compound,measurement,setting,value
CCC/C=C/CCN1CC1,survivor count,"dose: 80.0 mg/kg/injection, schedule: Q01DX001 (ip), vehicle: saline",1 of 6
same,survivor count,"dose: 200.0 mg/kg/injection, schedule: Q01DX001 (ip), vehicle: saline",4 of 6
same,survivor count,"dose: 400.0 mg/kg/injection, schedule: Q01DX001 (ip), vehicle: saline",0 of 6
NNc1cccc(C(F)(F)F)c1,survivor count,"dose: 100.0 mg/kg/injection, schedule: Q01DX009 (ip), vehicle: saline with Tween-80",0 of 6
same,survivor count,"dose: 200.0 mg/kg/injection, schedule: Q04DX003 (ip), vehicle: saline with Tween-80",1 of 6
same,survivor count,[1],0 of 6
CC(=O)Oc1cccc2ccc(/C=C/c3cccc[n+]3C)nc12,survivor count,"dose: 64.0 mg/kg/injection, schedule: Q01DX015 (ip), vehicle: carboxymethylcellulose (CMC)",0 of 6
same,survivor count,"dose: 128.0 mg/kg/injection, schedule: Q01DX015 (ip), vehicle: carboxymethylcellulose (CMC)",0 of 6
O=[N+]([O-])C(Br)(c1ccccc1)S(=O)(=O)Cc1ccccc1 (stereo unspecified),survivor count,[2],2 of 6
CCN(CC)CCOc1c(C(C)C)cccc1C(C)C,survivor count,"dose: 100.0 mg/kg/injection, schedule: Q01DX009 (ip), vehicle: saline",3 of 6
same,survivor count,[3],0 of 6
same,survivor count,[4],1 of 6
same,survivor count,[5],0 of 6
O=S1(=O)CC2C3C=CC(O3)C21 (stereo unspecified),survivor count,"dose: 300.0 mg/kg/injection, schedule: Q01DX001 (ip), vehicle: carboxymethylcellulose (CMC)",0 of 6
O=C(COc1ccc(Cl)c(Cl)c1)NCc1ccc[n+](Cc2cccc(Cl)c2S(=O)(=O)F)c1,survivor count,[4],2 of 6
same,survivor count,[5],0 of 6
CN(/C(N)=N/[N+](=O)[O-])c1cccnc1,survivor count,"dose: 200.0 mg/kg/injection, schedule: Q01DX009 (ip), vehicle: Klucel (hydroxypropylcellulose) (HPC)",0 of 3
same,survivor count,[6],1 of 3
same,survivor count,[7],0 of 3
C=C(C)[C@@H](/C=C/[C@@H](C)[C@H]1CC[C@H]2C3=CC[C@H]4C[C@@H](O)CC[C@]4(C)[C@H]3CC[C@]12C)CC,survivor count,[8],2 of 4
O=C1Oc2ccccc2C1=O,survivor count,"dose: 300.0 mg/kg/injection, schedule: Q01DX001 (ip), vehicle: other",2 of 6
same,survivor count,[5],6 of 6
COc1ccc(C(=O)c2ccc([N+](=O)[O-])cc2)c(OC)c1,survivor count,[9],3 of 3
CCCCCCCCCCC(=O)N1CCCCCC1,survivor count,"dose: 100.0 mg/kg/injection, schedule: Q04DX002 (ip), vehicle: Klucel (hydroxypropylcellulose) (HPC)",3 of 3
same,survivor count,[6],3 of 3
same,survivor count,[7],3 of 3
C=CC(C)n1c(=O)c2c(ncn2C)n(C)c1=O (stereo unspecified),survivor count,"dose: 6.25 mg/kg/injection, schedule: Q04DX003 (ip), vehicle: saline",3 of 3
same,survivor count,"dose: 12.5 mg/kg/injection, schedule: Q04DX003 (ip), vehicle: saline",0 of 3
same,survivor count,"dose: 25.0 mg/kg/injection, schedule: Q04DX003 (ip), vehicle: saline",0 of 3
same,survivor count,"dose: 100.0 mg/kg/injection, schedule: Q04DX003 (ip), vehicle: saline",0 of 3
same,survivor count,[4],0 of 3
same,survivor count,[5],0 of 3
CS(=O)(=O)CC(=O)c1ccccc1,survivor count,[1],5 of 6
CC(C)(SC(c1ccccc1)(c1ccccc1)c1ccccc1)C(N)C(=O)O (stereo unspecified),survivor count,"dose: 50.0 mg/kg/injection, schedule: Q01DX009 (ip), vehicle: saline",5 of 8
OCC1OC(n2cnc3c(SCc4ccccc4)ncnc32)C(O)C1O (stereo unspecified),survivor count,"dose: 50.0 mg/kg/injection, schedule: Q01DX Z (ip), vehicle: methylcellulose (MC)",0 of 6
same,T/C,"dose: 58.0 mg/kg/injection, schedule: Q01DX009 (ip), vehicle: saline",145 % of control
same,T/C,"dose: 88.0 mg/kg/injection, schedule: Q01DX009 (ip), vehicle: saline",142 % of control
same,survivor count,"dose: 100.0 mg/kg/injection, schedule: Q01DX Z (ip), vehicle: methylcellulose (MC)",0 of 6
same,T/C,[3],125 % of control
same,survivor count,"dose: 200.0 mg/kg/injection, schedule: Q01DX Z (ip), vehicle: methylcellulose (MC)",0 of 6
same,survivor count,"dose: 300.0 mg/kg/injection, schedule: Q01DX009 (ip), vehicle: carboxymethylcellulose (CMC)",5 of 6
same,survivor count,"dose: 300.0 mg/kg/injection, schedule: Q01DX009 (ip), vehicle: saline",6 of 6
CS(=O)(=O)OCCN(CCOS(C)(=O)=O)c1ccc(C=Nc2ccc(-c3csc(Cc4ccccc4)n3)cc2)cc1,T/C,"dose: 45.0 mg/kg/injection, schedule: Q04DX003 (ip), vehicle: Klucel (hydroxypropylcellulose) (HPC)",141 % of control
same,T/C,"dose: 100.0 mg/kg/injection, schedule: Q04DX003 (ip), vehicle: Klucel (hydroxypropylcellulose) (HPC)",132 and 148 % of control
same,survivor count,"dose: 200.0 mg/kg/injection, schedule: Q04DX003 (ip), vehicle: Klucel (hydroxypropylcellulose) (HPC)",6 of 6
same,survivor count,"dose: 400.0 mg/kg/injection, schedule: Q04DX003 (ip), vehicle: Klucel (hydroxypropylcellulose) (HPC)",3 of 6
CC(Br)C(=O)NC(Cc1ccccc1)C(=O)O (stereo unspecified),survivor count,"dose: 100.0 mg/kg/injection, schedule: Q04DX003 (ip), vehicle: other",6 of 6
C=CCN(C(=O)CCN1CC1)C1CCCCC1,survivor count,"dose: 50.0 mg/kg/injection, schedule: Q01DX001 (ip), vehicle: carboxymethylcellulose (CMC)",2 of 4
same,survivor count,"dose: 100.0 mg/kg/injection, schedule: Q01DX001 (ip), vehicle: carboxymethylcellulose (CMC)",0 of 4
same,survivor count,"dose: 200.0 mg/kg/injection, schedule: Q01DX001 (ip), vehicle: carboxymethylcellulose (CMC)",0 of 4
same,survivor count,[8],0 of 4
O=C(C[n+]1ccccc1)N/N=C/c1ccc([N+](=O)[O-])s1,survivor count,"dose: 50.0 mg/kg/injection, schedule: Q01DX009 (ip), vehicle: water",3 of 6
same,survivor count,"dose: 100.0 mg/kg/injection, schedule: Q04DX003 (ip), vehicle: water",3 of 6
same,survivor count,"dose: 200.0 mg/kg/injection, schedule: Q04DX003 (ip), vehicle: water",0 of 6
same,survivor count,"dose: 400.0 mg/kg/injection, schedule: Q04DX003 (ip), vehicle: water",0 of 6
CC(C)(C)C1CCC(=O)C(Cl)C1 (stereo unspecified),survivor count,[2],0 of 6
S=P(NCCSCc1ccccc1)(N1CC1)N1CC1,T/C,"dose: 52.0 mg/kg/injection, schedule: Q01DX011 (ip), vehicle: carboxymethylcellulose (CMC)",130 % of control [5 of 6 alive]
same,T/C,"dose: 100.0 mg/kg/injection, schedule: Q01DX015 (ip), vehicle: carboxymethylcellulose (CMC)",128 % of control
CCCCCNCCC[P+](c1ccccc1)(c1ccccc1)c1ccccc1,survivor count,[10],3 of 3
same,survivor count,[11],0 of 3
same,survivor count,[12],0 of 3
OCC(O)C(O)/C=N/Nc1cc(Cl)ccc1Cl (stereo unspecified),survivor count,[8],1 of 4
Cc1ncnc(N)c1CCC(C)C,survivor count,"dose: 100.0 mg/kg/injection, schedule: Q01DX001 (ip), vehicle: Klucel (hydroxypropylcellulose) (HPC)",0 of 6
same,survivor count,"dose: 200.0 mg/kg/injection, schedule: Q01DX001 (ip), vehicle: Klucel (hydroxypropylcellulose) (HPC)",0 of 6
same,survivor count,[9],0 of 6
C=CCCCCCCCCC(=O)N(C)OC,survivor count,"dose: 200.0 mg/kg/injection, schedule: Q01DX009 (ip), vehicle: saline with Tween-80",6 of 6
same,survivor count,"dose: 400.0 mg/kg/injection, schedule: Q01DX009 (ip), vehicle: saline with Tween-80",1 of 6
O=c1[nH]c2ccccc2o1,survivor count,[10],3 of 3
O=C(CCl)NCCCC1CCCCC1,survivor count,[10],2 of 3
same,survivor count,[11],0 of 3
same,survivor count,[12],0 of 3
